Test results reported in article PMC6177239.
Results are given in words; binding and its absence hold for the method and conditions named.

Molecular target: NanB (Streptococcus pneumoniae D39) (UniProt Q54727)
Test: SEC; quality control of the purified recombinant neuraminidases; purity and monomeric content determined by SDS-PAGE, size exclusion chromatography and circular dichroism; both purified

- binding: no binding
B1: NanB (enzyme, UniProt Q54727 30-697)
chain: NELNYGQLSISPIFQGGSYQLNNKSIDISSLLLDKLSGESQTVVMKFKADKPNSLQALFGLSNSKAGFKNNYFSIFMRDSGEIGVEIRDAQKGINYLFSRPASLWGKHKGQAVENTLVFVSDSKDKTYTMYVNGIEVFSETVDTFLPISNINGIDKATLGAVNREGKEHYLAKGSIDEISLFNKAISDQEVSTIPLSNPFQLIFQSGDSTQANYFRIPTLYTLSSGRVLSSIDARYGGTHDSKSKINIATSYSDDNGKTWSEPIFAMKFNDYEEQLVYWPRDNKLKNSQISGSASFIDSSIVEDKKSGKTILLADVMPAGIGNNNANKADSGFKEINGHYYLKLKKNGDNDFRYTVRENGVVYNETTNKPTNYTINDKYEVLEGGKSLTVEQYSVDFDSGSLRERHNGKQVPMNVFYKDSLFKVTPTNYIAMTTSQNRGESWEQFKLLPPFLGEKHNGTYLCPGQGLALKSSNRLIFATYTSGELTYLISDDSGQTWKKSSASIPFKNATAEAQMVELRDGVIRTFFRTTTGKIAYMTSRDSGETWSKVSYIDGIQQTSYGTQVSAIKYSQLIDGKEAVILSTPNSRSGRKGGQLVVGLVNKEDDSIDWKYHYDIDLPSYGYAYSAITELPNHHIGVLFEKYDSWSRNELHLSNVVQYIDLEINDLTK
